This note sets out measurements from patent US10702592B2, “Peptides and combination of peptides for use in immunotherapy against NHL and other cancers” (Immatics Biotechnologies GmbH, priority 2016, dated 2020).

The test system of one data set is NHL samples. Kind of data set: Identification and label-free LC-MS quantitation of HLA-presented peptides: presentation profile/score, NHL vs normal tissues. More on the design: species or system human; key: very highly over-presented on tumors compared to a panel of normal tissues (+++); highly over-presented on tumors compared to a panel of normal tissues (++); over-presented on tumors compared to a panel of normal tissues (+). The conditions noted are these: NHL tumors compared to a panel of normal tissues.

Data set [1] concerns other tumor types (tumor samples vs normal tissues). Kind of data set: LC-MS detection / over-presentation of peptides on additional tumor types. More on the design: species or system human. The conditions noted are these: for Other relevant organs/diseases: additional tumor types on which the peptide was found: over-presented on more than 5% of measured tumor samples, or presented on more than 5% with ratio of geometric means tumor vs normal tissues larger than 3; for Other relevant organs / diseases (additional tumor types with over-presentation): over-presented on >5% of measured tumor samples, or presented on >5% with ratio of geometric means tumor vs normal >3.

For “239 (VLIDDTVLL; listed as Homo sapiens) [compound 239]”, the “Peptide Presentation” value in the data set with NHL samples is recorded as “++”. In addition, in data set [1], the Other relevant organs/diseases entry is listed as “HCC, AML, Melanoma” and the “Other relevant organs / diseases (additional tumor types with over-presentation)” value is “Uterine Cancer”.

On to “305 (AMLAQQMQL; listed as Homo sapiens) [compound 305]”, for which the “Peptide Presentation” value in the data set with NHL samples was “+”. For the same substance, the Other relevant organs/diseases result in data set [1] is reported as “CLL, BRCA”.

As to “109 (YLFQFSAAL; listed as Homo sapiens) [compound 109]”, in the data set with NHL samples, the “Peptide Presentation” value was “+++”. In data set [1], the Other relevant organs/diseases entry is “RCC, PC” and the “Other relevant organs / diseases (additional tumor types with over-presentation)” value is “HNSCC”.

Consider “69 (TLLAFPLLL; listed as Homo sapiens) [compound 69]”, for which the “Peptide Presentation” value in the data set on NHL samples is on record as “+”. In data set [1], the Other relevant organs/diseases entry was “HCC, CLL, AML, Melanoma, Gallbladder Cancer, Bile Duct Cancer” and the “Other relevant organs / diseases (additional tumor types with over-presentation)” value is reported as “HNSCC”.

In the case of “218 (ALDQFLEGI; listed as Homo sapiens) [compound 218]”, the “Peptide Presentation” value in the data set on NHL samples is recorded as “+”. In data set [1], the Other relevant organs/diseases result was “CLL, BRCA, Urinary bladder cancer, Uterine Cancer” and the “Other relevant organs / diseases (additional tumor types with over-presentation)” value was “HNSCC”.

As for “23 (ALVEDIINL; listed as Homo sapiens) [compound 23]”, the “Peptide Presentation” value in the data set with NHL samples is on record as “+++”. Moreover, in data set [1], the Other relevant organs/diseases result was “CRC, BRCA, Melanoma, Uterine Cancer” and the “Other relevant organs / diseases (additional tumor types with over-presentation)” value is on record as “Urinary Bladder Cancer, AML, HNSCC”.

For “74 (SLDLRPLEV; listed as Homo sapiens) [compound 74]”, the “Peptide Presentation” value in the data set with NHL samples is given as “+”. In addition, the Other relevant organs/diseases entry in data set [1] was “RCC, GC”.

As for “256 (ALQETPPQV; listed as Homo sapiens) [compound 256]”, in the data set with NHL samples, the “Peptide Presentation” value is recorded as “+++”. For the same substance, in data set [1], the “Other relevant organs / diseases (additional tumor types with over-presentation)” value is “AML”.

For “5 (VLQGLTFTL; listed as Homo sapiens) [compound 5]”, the “Peptide Presentation” value in the data set with NHL samples is “+++”. Besides, in data set [1], the Other relevant organs/diseases result was “SCLC, CLL, BRCA, Melanoma, OC, Urinary bladder cancer, Uterine Cancer, Gallbladder Cancer, Bile Duct Cancer” and the “Other relevant organs / diseases (additional tumor types with over-presentation)” value is reported as “HNSCC”.

Take “244 (ILEPFLPAV; listed as Homo sapiens) [compound 244]”: the “Peptide Presentation” value with NHL samples was “+”. In addition, in data set [1], the Other relevant organs/diseases entry is given as “Melanoma, Uterine Cancer” and the “Other relevant organs / diseases (additional tumor types with over-presentation)” value is given as “CLL, AML”.

For “65 (NLTDVSPDL; listed as Homo sapiens) [compound 65]”, the “Peptide Presentation” value with NHL samples is listed as “+++”. Also, the Other relevant organs/diseases entry in data set [1] was “CLL, Uterine Cancer”.

In the case of “85 (GLAPAEVVVATVA; listed as Homo sapiens) [compound 85]”, in the data set with NHL samples, the “Peptide Presentation” value is recorded as “+++”. Besides, the Other relevant organs/diseases result in data set [1] is “CLL, Melanoma”.

Regarding “290 (IASPVIAAV; listed as Homo sapiens) [compound 290]”, the “Peptide Presentation” value with NHL samples is listed as “+++”. Moreover, in data set [1], the Other relevant organs/diseases entry was “HCC, PC, CLL, AML, BRCA, Melanoma, Gallbladder Cancer, Bile Duct Cancer” and the “Other relevant organs / diseases (additional tumor types with over-presentation)” value is on record as “NSCLC, SCLC, CRC, Uterine Cancer”.

Turning to “214 (FLFDGSMSL; listed as Homo sapiens) [compound 214]”, the “Peptide Presentation” value in the data set with NHL samples is given as “++”. Further, in data set [1], the Other relevant organs/diseases entry is reported as “AML” and the “Other relevant organs / diseases (additional tumor types with over-presentation)” value is on record as “Urinary Bladder Cancer”.

Consider “227 (IIAEGIPEA; listed as Homo sapiens) [compound 227]”, for which, in the data set on NHL samples, the “Peptide Presentation” value is given as “+”. In data set [1], the Other relevant organs/diseases result is “SCLC, CLL, Melanoma, Uterine Cancer” and the “Other relevant organs / diseases (additional tumor types with over-presentation)” value was “RCC, HNSCC”.

As for “243 (GLPDLDIYL; listed as Homo sapiens) [compound 243]”, the “Peptide Presentation” value in the data set on NHL samples is given as “+++”. Besides, in data set [1], the Other relevant organs/diseases result is reported as “HCC, CLL, AML, Melanoma, Uterine Cancer”.

On to “296 (FILEPLYKI; listed as Homo sapiens) [compound 296]”, for which the “Peptide Presentation” value in the data set with NHL samples was “++”. Moreover, in data set [1], the Other relevant organs/diseases entry is “CLL, Esophageal Cancer, OC, Uterine Cancer” and the “Other relevant organs / diseases (additional tumor types with over-presentation)” value is reported as “AML”.

As for “180 (GILQLVESV; listed as Homo sapiens) [compound 180]”, the “Peptide Presentation” value in the data set on NHL samples is reported as “++”. Moreover, the Other relevant organs/diseases result in data set [1] is listed as “HCC, CLL, AML, Melanoma, OC”.

Take “188 (GLEDEMYEV; listed as Homo sapiens) [compound 188]”: in the data set with NHL samples, the “Peptide Presentation” value was “++”. Besides, in data set [1], the Other relevant organs/diseases entry is given as “CLL, Melanoma, Uterine Cancer, Gallbladder Cancer, Bile Duct Cancer” and the “Other relevant organs / diseases (additional tumor types with over-presentation)” value is given as “HNSCC”.

On to “78 (AMEEAVAQV; listed as Homo sapiens) [compound 78]”, for which the “Peptide Presentation” value with NHL samples was “+++”. Moreover, the Other relevant organs/diseases result in data set [1] is on record as “RCC, Gallbladder Cancer, Bile Duct Cancer”.

Take “50 (LLLDGLIYL; listed as Homo sapiens) [compound 50]”: in the data set on NHL samples, the “Peptide Presentation” value is reported as “+”. Also, in data set [1], the Other relevant organs/diseases result is recorded as “CLL”.

As to “131 (VLIEETDQL; listed as Homo sapiens) [compound 131]”, in the data set with NHL samples, the “Peptide Presentation” value is “+++”. Besides, in data set [1], the Other relevant organs/diseases result is “CLL, Melanoma” and the “Other relevant organs / diseases (additional tumor types with over-presentation)” value is “BRCA”.

As for “98 (MLQDGIARL; listed as Homo sapiens) [compound 98]”, the “Peptide Presentation” value with NHL samples is listed as “+++”. Moreover, the Other relevant organs/diseases result in data set [1] is recorded as “CLL, Melanoma”.

In the case of “287 (ILMGHSLYM; listed as Homo sapiens) [compound 287]”, in the data set on NHL samples, the “Peptide Presentation” value was “++”. Further, the Other relevant organs/diseases entry in data set [1] is “Gallbladder Cancer, Bile Duct Cancer”.

“203 (ILDTIFHKV; listed as Homo sapiens) [compound 203]”: in the data set with NHL samples, the “Peptide Presentation” value is on record as “+++”. In data set [1], the Other relevant organs/diseases result is reported as “Melanoma”.

In the case of “46 (FLVEEIFQT; listed as Homo sapiens) [compound 46]”, the “Peptide Presentation” value in the data set with NHL samples was “++”. In data set [1], the Other relevant organs/diseases result is listed as “SCLC, Gallbladder Cancer, Bile Duct Cancer” and the “Other relevant organs / diseases (additional tumor types with over-presentation)” value is “AML”.

Turning to “174 (VLVEITDVDFAA; listed as Homo sapiens) [compound 174]”, the “Peptide Presentation” value in the data set with NHL samples is listed as “+++”. Besides, the Other relevant organs/diseases result in data set [1] is listed as “Melanoma”.

For the substance “263 (GLMDNEIKV; listed as Homo sapiens) [compound 263]”, the “Peptide Presentation” value in the data set with NHL samples is “+++”. Further, in data set [1], the Other relevant organs/diseases entry was “NSCLC, RCC, HCC, PC, Melanoma, Gallbladder Cancer, Bile Duct Cancer” and the “Other relevant organs / diseases (additional tumor types with over-presentation)” value is “HNSCC”.

For the substance “271 (YLLDQPVLEQRL; listed as Homo sapiens) [compound 271]”, the “Peptide Presentation” value with NHL samples is reported as “+++”. Moreover, the Other relevant organs/diseases entry in data set [1] was “CLL, Melanoma”.

As to “1 (LLSGQLPTI; listed as Homo sapiens) [compound 1]”, the “Peptide Presentation” value in the data set with NHL samples was “+++”. Also, the Other relevant organs/diseases entry in data set [1] is given as “CLL, Uterine Cancer”.

In the case of “2 (LLSEETPSA; listed as Homo sapiens) [compound 2]”, the “Peptide Presentation” value in the data set with NHL samples is “+++”. In addition, in data set [1], the Other relevant organs/diseases entry is “NSCLC, SCLC, CLL, AML, BRCA, Melanoma, Urinary bladder cancer, Uterine Cancer” and the “Other relevant organs / diseases (additional tumor types with over-presentation)” value was “HNSCC”.

For the substance “53 (FLREYFERL; listed as Homo sapiens) [compound 53]”, the “Peptide Presentation” value in the data set on NHL samples is recorded as “+++”. Moreover, the Other relevant organs/diseases entry in data set [1] was “CLL, Melanoma, Uterine Cancer”.

Consider “273 (AILLPQPPK; listed as Homo sapiens) [compound 273]”, for which, in the data set on NHL samples, the “Peptide Presentation” value was “+++”. In addition, the Other relevant organs/diseases entry in data set [1] is “RCC, CLL, Melanoma, OC”.

With “249 (VLLESLVEI; listed as Homo sapiens) [compound 249]”, in the data set on NHL samples, the “Peptide Presentation” value is on record as “+++”. The Other relevant organs/diseases result in data set [1] is on record as “Melanoma, Gallbladder Cancer, Bile Duct Cancer”.

Turning to “185 (FIAQLNNVEL; listed as Homo sapiens) [compound 185]”, the “Peptide Presentation” value in the data set on NHL samples is listed as “+”. Further, in data set [1], the Other relevant organs/diseases result is “Melanoma, OC” and the “Other relevant organs / diseases (additional tumor types with over-presentation)” value is “AML”.

Consider “15 (IIIEDLLEA; listed as Homo sapiens) [compound 15]”, for which the “Peptide Presentation” value in the data set on NHL samples is “+++”. Besides, the Other relevant organs/diseases result in data set [1] is given as “BRCA, Melanoma, Uterine Cancer”.

Take “37 (VLGNALEGV; listed as Homo sapiens) [compound 37]”: the “Peptide Presentation” value in the data set with NHL samples is given as “+++”. For the same substance, in data set [1], the Other relevant organs/diseases entry is “HCC, CLL, AML, Urinary bladder cancer, Uterine Cancer” and the “Other relevant organs / diseases (additional tumor types with over-presentation)” value was “SCLC”.

On to “207 (GLVGLLEQA; listed as Homo sapiens) [compound 207]”, for which the “Peptide Presentation” value with NHL samples is listed as “++”. Besides, the Other relevant organs/diseases result in data set [1] is “SCLC, HCC, CLL, AML, BRCA, Melanoma, OC, Uterine Cancer, Gallbladder Cancer, Bile Duct Cancer”.

In the case of “12 (GLLLLVPLL; listed as Homo sapiens) [compound 12]”, the “Peptide Presentation” value in the data set with NHL samples is “+++”. For the same substance, in data set [1], the Other relevant organs/diseases result was “Melanoma, Gallbladder Cancer, Bile Duct Cancer” and the “Other relevant organs / diseases (additional tumor types with over-presentation)” value is “OC, Esophageal Cancer, HNSCC”.

Consider “258 (RIYPFLLMV; listed as Homo sapiens) [compound 258]”, for which the “Peptide Presentation” value with NHL samples is given as “+++”. Further, in data set [1], the Other relevant organs/diseases result was “NSCLC, SCLC, RCC, HCC, CLL, AML, Melanoma, Urinary bladder cancer, Gallbladder Cancer, Bile Duct Cancer” and the “Other relevant organs / diseases (additional tumor types with over-presentation)” value is reported as “CRC”.
